{"source": "PubChem BioAssay AID504444", "about": "(National Center for Advancing Translational Sciences (NCATS), 2011)", "note": "Screen size: about 360,000 compounds; about 7,500 (2.1%) were called active. The inconclusive results got no clear call from the source; some entries with a clear call stand among them for comparison. Calls follow the shape of the dose curve; as a rule, active = well fitted inhibition curve with a large enough effect; inconclusive = small, poorly fitted or top-dose-only effect, or effect the other way; inactive = flat fitted curve, though single readings scatter. Potencies beside an inconclusive call are fits to weak or partial responses and may not hold up. Potency is read from the fitted curve at half-maximal effect."}
{"test": "Nrf2 qHTS screen for inhibitors; also: nearly all actives have a fitted effect of over 60% in size", "settings": "A549 ARE-Fluc reporter, luciferase luminescence, 18-24 h; series mostly up to 46 µM", "how_it_was_run": "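Nrf2 activity is the BugLite luminescence, read 15 min after reagent at room temperature, following CellTiter-Fluor cytotoxicity readout (30 min, 37C). Compound titrations were applied for 18-24 h to 5000 A549 ARE_Fluc cells/well in 5% FBS OPTI-MEM.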"}
{"smiles": "Cc1nnc(NC(=O)c2cc3ccccc3o2)s1", "Potency": "inconclusive: 29.1 µM [activator, single point]"}
{"smiles": "O=C1C(Cl)=C(N2CCN(Cc3ccccc3)CC2)C(=O)N1Cc1ccccc1", "Potency": "inconclusive: 35.5 µM [falling, partial curve, poor fit]"}
{"smiles": "CCN(CC)c1nc2cc(C)ccc2cc1/C=C(\\C#N)C(N)=O", "Potency": "inconclusive: 6.51 µM [activator, single point]"}
{"smiles": "CCc1cc(C(=O)NC2CCCc3c2cnn3-c2cccc(C)c2C)n(C)n1", "note": "(stereo unspecified)", "Potency": "active: 0.184 µM"}
{"smiles": "O=C(CN1C(=O)C2C3C=CC(C3)C2C1=O)Nc1ccc2c(c1)OCCO2", "note": "(stereo unspecified)", "Potency": "inconclusive: 20 µM [activator, single point]"}
{"smiles": "O=C(N/N=C/c1c[nH]c2ccccc12)c1ccc(Cl)cc1", "Potency": "inconclusive: 25.9 µM [activator, single point]"}
{"smiles": "CCN(CC)S(=O)(=O)c1cc(-c2nn(C)c(=O)c3ccccc23)ccc1C", "Potency": "inconclusive: 25.9 µM [falling, single point]"}
{"smiles": "COC(=O)/C=C1\\S/C(=N/N=C/c2ccc(Cl)cc2)NC1=O", "Potency": "inconclusive: 29.1 µM [falling, single point]"}
{"smiles": "N/C(=N\\N=C\\c1ccc(O)cc1)c1nonc1N", "Potency": "inconclusive: 18.4 µM [activator, partial curve]"}
{"smiles": "Cc1cc2oc3cc(NCCC4CCCN4C)ccc3c(=O)c2cc1C", "note": "(stereo unspecified)", "Potency": "inconclusive: 5.8 µM [activator, partial curve, poor fit]"}
{"smiles": "O=C(Cc1ccccc1F)Nc1ccccc1-c1ccccc1", "Potency": "inconclusive: 8.2 µM [activator, partial curve]"}
{"smiles": "O=C(NC[C@H]1CCCO1)c1cccc2c1C(=O)c1ccc(-c3ccc(F)cc3OCc3ccccc3)cc1S2(=O)=O", "Potency": "inconclusive: 18.4 µM [activator, partial curve, poor fit]"}
{"smiles": "COc1ccccc1NC(=S)N1CCC(NC(=O)c2ccco2)CC1", "Potency": "inconclusive: 20.6 µM [falling, partial curve, poor fit]"}
{"smiles": "O=[N+]([O-])c1cccc2nc3ccccc3c(NCCCn3ccnc3[N+](=O)[O-])c12", "Potency": "active: 0.146 µM"}
{"smiles": "COc1ccc(N(CC(=O)Nc2cccc(C)c2C)S(=O)(=O)c2c(C)n[nH]c2C)cc1", "Potency": "inconclusive: 18.4 µM [falling, partial curve, poor fit]"}
{"smiles": "CN1/C(=C\\C(=O)c2cccc(S(=O)(=O)N3CCCCC3)c2)C(C)(C)c2ccccc21", "Potency": "inactive"}
{"smiles": "Cc1cccc(/C(N)=N/OC(=O)c2ccccc2Cl)c1", "Potency": "inconclusive: 0.206 µM [activator, full curve, poor fit]"}
{"smiles": "COCc1cc(C)nc(N)c1C#N", "Potency": "inconclusive: 3.26 µM [activator, partial curve]"}
{"smiles": "Cc1ccccc1OCCn1cc(C(=O)O)c2ccccc21", "Potency": "inactive"}
{"smiles": "CC(OC(=O)C1CCCCC1)c1nc2ccccc2[nH]1", "note": "(stereo unspecified)", "Potency": "inconclusive: 16.4 µM [falling, single point]"}
{"smiles": "CC1=C(C(=O)OCc2ccc3c(c2)OCO3)C(c2ccc(Cl)cc2)NC(=O)N1", "note": "(stereo unspecified)", "Potency": "active: 7.31 µM"}
{"smiles": "Cc1ccc(C)c(NC(=O)CSc2nnc(-c3n[nH]c4ccccc34)o2)c1", "Potency": "inactive"}
{"smiles": "CCCN1/C(=C2/SC(=S)N(CC)C2=O)C=Cc2ccccc21", "Potency": "inconclusive: 13 µM [falling, partial curve, poor fit]"}
{"smiles": "Cc1ccc(C2=NS(=O)(=O)N(C)C(C(=O)NC3CCCC3)=C2)cc1", "Potency": "inconclusive: 29.1 µM [falling, single point]"}
{"smiles": "O=C(NCC1CCCO1)c1cc(NS(=O)(=O)c2cccs2)cc(NS(=O)(=O)c2cccs2)c1", "note": "(stereo unspecified)", "Potency": "inconclusive: 0.411 µM [falling, full curve, poor fit]"}
{"smiles": "CC(On1nnc2ccccc21)C(=O)N1CCN(Cc2ccccc2)CC1", "note": "(stereo unspecified)", "Potency": "inconclusive: 29.1 µM [activator, single point]"}
{"smiles": "Cc1ccc(C(=O)Nc2ccc(C(=O)O)cc2NC(=O)c2ccc(C)cc2)cc1", "Potency": "inconclusive: 7.31 µM [activator, partial curve, poor fit]"}
{"smiles": "O=C(NNC1=C(C(=O)C(F)(F)F)CCC1)c1ccc(Br)cc1", "Potency": "inconclusive: 16.4 µM [falling, single point]"}
{"smiles": "O=C(O)c1ccc(Nc2nc3ccccc3c3nncn23)cc1", "Potency": "inactive"}
{"smiles": "CC1CCC(NC(=O)CN2CCCN(Cc3ccc(F)cc3Cl)C2=O)CC1", "note": "(stereo unspecified)", "Potency": "inconclusive: 13 µM [falling, partial curve, poor fit]"}
{"smiles": "CCCCCCCCN1N=N[C@H]2[C@H]1[C@@H]1C[C@H]2N(C(=O)OC(C)(C)C)O1", "Potency": "inconclusive: 25.9 µM [activator, partial curve, poor fit]"}
{"smiles": "CC(=O)N1CCOc2cc(S(=O)(=O)NCc3ccccc3Cl)c(C)cc21", "Potency": "inactive"}
{"smiles": "O=C(CNc1cccc(C(F)(F)F)c1)Nc1cccc(S(=O)(=O)N2CCCC2)c1", "Potency": "inconclusive: 29.1 µM [falling, single point]"}
{"smiles": "COc1ccc(C(O)(CC(C)C)C(CN2CCOCC2)c2ccccc2)cc1", "note": "(stereo unspecified)", "Potency": "inconclusive: 7.31 µM [falling, partial curve, poor fit]"}
{"smiles": "O=C(CSc1ccccn1)Nc1ccc2c(c1)OCO2", "Potency": "inconclusive: 2.06 µM [activator, full curve]"}
{"smiles": "O=[N+]([O-])c1ccc(Sc2ncc3ccccn23)nc1", "Potency": "inconclusive: 2.59 µM [falling, full curve]"}
{"smiles": "Cc1cccc(NC(=O)Cn2nnc(-c3cccs3)n2)c1C", "Potency": "inconclusive: 7.31 µM [falling, partial curve, poor fit]"}
{"smiles": "Cc1ccc(S(=O)(=O)N2c3ccccc3OCC2C(C)(C)C)cc1", "note": "(stereo unspecified)", "Potency": "inconclusive: 8.2 µM [falling, single point]"}
{"smiles": "Cc1ccc2c(c1)c1c3n2CCN(CC(N)=O)C3CCC1", "note": "(stereo unspecified)", "Potency": "inconclusive: 29.1 µM [falling, single point]"}
{"smiles": "COc1cccc(/C=C/C(=O)c2ccc(NS(=O)(=O)c3ccc(C)cc3)cc2)c1", "Potency": "inconclusive: 23.1 µM [falling, partial curve, poor fit]"}
{"smiles": "COc1ccc2c(c1)c(C(C)=O)c(C)n2CCc1ccccc1", "Potency": "active: 13 µM"}
